Assay results as given in the supplement of paper PMC4635364.
Counter-ions that a name gives are not always drawn. Some of the results follow. Repeats in this data set agree poorly, so a single value says little.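 Human fetal ventral-midbrain neural progenitor line ReNCell VM, differentiated without mitogens. Images stained for doublecortin (early neurons) or tyrosine hydroxylase (dopaminergic neurons) were scored by blinded raters against untreated wells (0 = no change). Repeats and both raters were averaged, and compounds averaging 2 or higher were picked as hits for retesting.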

These compounds were tested on ReNCell VM (assay: dopaminergic neuron differentiation score (TH+ cell fraction vs untreated, manual image score) (score (0 to 3)); higher = more TH+ dopaminergic neuron differentiation). Conditions: library: Prestwick; 2 uM; 4 weeks; BDNF 10 ng/ml + GDNF 10 ng/ml.

Dopaminergic neuron differentiation score, inactive:
CC(=O)OCC(=O)[C@@]12OC(C)(C)O[C@@H]1C[C@H]1[C@@H]3C[C@H](F)C4=CC(=O)C=C[C@]4(C)[C@@]3(F)[C@@H](O)C[C@@]12C [Fluocinonide] 0, CN1CCOC(c2ccccc2)c2ccccc2C1 (configuration not stated) [Nefopam hydrochloride] 0, CN1CCN(C(c2ccccc2)c2ccccc2)CC1 [Cyclizine hydrochloride] 0, Clc1ccc(CO/N=C(\Cn2ccnc2)c2ccc(Cl)cc2Cl)c(Cl)c1 [Oxiconazole Nitrate] 1, C1N2CN3CN1CN(C2)C3 [Methenamine] 0, CNC(=C[N+](=O)[O-])NCCSCc1csc(CN(C)C)n1 [Nizatidine] 0, OCC(O)CN1CCN(c2ccccc2)CC1 (racemic) [Dropropizine (R,S)] 0
